Measurements taken from paper PMC6570896.

Protein sequences, listed by entry. Tags and fused reporters are not part of them. Lines headed by an entry give the natural chain unless they say otherwise; changes in a name come on top.
UniProt Q8VXX4: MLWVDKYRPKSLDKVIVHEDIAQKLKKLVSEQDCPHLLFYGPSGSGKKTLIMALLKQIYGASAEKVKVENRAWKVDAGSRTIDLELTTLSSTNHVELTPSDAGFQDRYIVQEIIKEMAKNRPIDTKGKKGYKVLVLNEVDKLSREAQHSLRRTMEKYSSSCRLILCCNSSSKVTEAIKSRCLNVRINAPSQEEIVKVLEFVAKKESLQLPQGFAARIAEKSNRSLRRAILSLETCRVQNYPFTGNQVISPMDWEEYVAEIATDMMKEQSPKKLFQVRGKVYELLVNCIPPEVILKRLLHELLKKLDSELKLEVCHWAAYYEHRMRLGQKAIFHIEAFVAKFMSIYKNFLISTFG
UniProt Q9CAQ8: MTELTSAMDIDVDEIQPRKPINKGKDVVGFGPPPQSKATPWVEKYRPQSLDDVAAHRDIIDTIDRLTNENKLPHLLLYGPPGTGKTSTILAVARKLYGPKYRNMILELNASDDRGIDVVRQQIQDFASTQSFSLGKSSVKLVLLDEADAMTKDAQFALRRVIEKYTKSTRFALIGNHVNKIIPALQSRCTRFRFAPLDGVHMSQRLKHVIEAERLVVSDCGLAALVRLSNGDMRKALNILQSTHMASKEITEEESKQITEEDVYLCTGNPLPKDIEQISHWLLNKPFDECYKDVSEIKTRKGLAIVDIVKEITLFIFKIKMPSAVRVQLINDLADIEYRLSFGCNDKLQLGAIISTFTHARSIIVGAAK

What was measured:
[1] = target: AtRFC5-YFP^N (Arabidopsis thaliana) (UniProt Q8VXX4); test: split reporter; BiFC: fusions to YFP^N (1-155 aa) and YFP^C (156-239 aa) co-expressed transiently in Nicotiana benthamiana leaf epidermal cells; YFP seen by confocal microscopy
[2] = target: AtRFC3-YFP^N (Arabidopsis thaliana) (UniProt Q9CAQ8); test: as above

Binder | binding [1] | binding [2]
AtPCNA1 Δ244–263 (domain or fragment, UniProt Q9M7Q7 1-243) MLELRLVQGSLLKKVLESIKDLVNDANFDCSSTGFSLQAMDSSHVALVSLLLRSEGFEHYRCDRNLSMGMNLGNMSKMLKCAGNDDIITIKADDGGDTVTFMFESPTQDKIADFEMKLMDIDSEHLGIPDAEYHSIVRMPSNEFSRICKDLSSIGDTVVISVTKEGVKFSTAGDIGTANIVLRQNTTVDKPEDAIVIEMKEPVSLSFALRYMNSFTKATPLSDTVTISLSSELPVVVEYKVAE | no binding | no binding
AtPCNA2 Δ1–136 (domain or fragment, UniProt Q9ZW35 137-264) VRMPSGEFSRICKDLSSIGDTVVISVTKEGVKFSTAGDIGTANIVLRQNTTVDKPEDAIVIEMNEPVSLSFALRYMNSFTKATPLSETVTISLSSELPVVVEYKVAEMGYIRYYLAPKIEEEEDTKPE | no binding | no binding
AtPCNA1 Δ1–120 (domain or fragment, UniProt Q9M7Q7 121-263) IDSEHLGIPDAEYHSIVRMPSNEFSRICKDLSSIGDTVVISVTKEGVKFSTAGDIGTANIVLRQNTTVDKPEDAIVIEMKEPVSLSFALRYMNSFTKATPLSDTVTISLSSELPVVVEYKVAEMGYIRYYLAPKIEEEEDTNP | binds | binds
AtPCNA2 Δ145–264 (domain or fragment, UniProt Q9ZW35 1-144) MLELRLVQGSLLKKVLEAVKDLVNDANFDCSTTGFSLQAMDSSHVALVSLLLRSEGFEHYRCDRNLSMGMNLGNMSKMLKCAGNDDIITIKADDGSDTVTFMFESPTQDKIADFEMKLMDIDSEHLGIPDAEYHSIVRMPSGEF | no binding | no binding
AtPCNA1 Δ144–263 (domain or fragment, UniProt Q9M7Q7 1-143) MLELRLVQGSLLKKVLESIKDLVNDANFDCSSTGFSLQAMDSSHVALVSLLLRSEGFEHYRCDRNLSMGMNLGNMSKMLKCAGNDDIITIKADDGGDTVTFMFESPTQDKIADFEMKLMDIDSEHLGIPDAEYHSIVRMPSNE | no binding | no binding
AtPCNA2 Δ1–120 (domain or fragment, UniProt Q9ZW35 121-264) IDSEHLGIPDAEYHSIVRMPSGEFSRICKDLSSIGDTVVISVTKEGVKFSTAGDIGTANIVLRQNTTVDKPEDAIVIEMNEPVSLSFALRYMNSFTKATPLSETVTISLSSELPVVVEYKVAEMGYIRYYLAPKIEEEEDTKPE | binds | binds

Results, then the binder that gave them:

binding [1] | binding [2] | Binder
no binding | no binding | AtPCNA1 Δ128–263-YFP^N (domain or fragment, UniProt Q9M7Q7 1-127) MLELRLVQGSLLKKVLESIKDLVNDANFDCSSTGFSLQAMDSSHVALVSLLLRSEGFEHYRCDRNLSMGMNLGNMSKMLKCAGNDDIITIKADDGGDTVTFMFESPTQDKIADFEMKLMDIDSEHLG
no binding | no binding | AtPCNA1 Δ1–136 (domain or fragment, UniProt Q9M7Q7 137-263) VRMPSNEFSRICKDLSSIGDTVVISVTKEGVKFSTAGDIGTANIVLRQNTTVDKPEDAIVIEMKEPVSLSFALRYMNSFTKATPLSDTVTISLSSELPVVVEYKVAEMGYIRYYLAPKIEEEEDTNP
no binding | no binding | AtPCNA2 Δ245–264 (domain or fragment, UniProt Q9ZW35 1-244) MLELRLVQGSLLKKVLEAVKDLVNDANFDCSTTGFSLQAMDSSHVALVSLLLRSEGFEHYRCDRNLSMGMNLGNMSKMLKCAGNDDIITIKADDGSDTVTFMFESPTQDKIADFEMKLMDIDSEHLGIPDAEYHSIVRMPSGEFSRICKDLSSIGDTVVISVTKEGVKFSTAGDIGTANIVLRQNTTVDKPEDAIVIEMNEPVSLSFALRYMNSFTKATPLSETVTISLSSELPVVVEYKVAEM

No constants are given. Whether binding was seen depends on the method and setting. In cells and extracts the contact can be indirect. Binding can be weak; no strength is given. Sequences can lack the tags named with a protein.
